Results deposited as PubChem BioAssay AID1224830 (NIAID, 2016).
Here is a random part of about 18,000 deposited reagents. Over the whole deposit, about 2,900 (16%) got an active call. 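Calls are made per well; low scores hint the gene aids the LPS response, high scores that it dampens it.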 Repeated entries: four replicate wells of each siRNA pool.

Assay: 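Regulators of TLR4 signalling towards TNF-alpha in macrophage-like cells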 (primary screen)
System: human THP-1 monocytic leukaemia cells, TNF dual-luciferase reporter clone, PMA-differentiated to macrophage-like cells
Reagent: siRNA pool against human genes, 50 nM
Duration: LPS for 4 h, given about 3 days after siRNA transfection
Treatment: bacterial LPS (TLR4 ligand), 10 ng/ml
Detection: 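TNF firefly reporter luminescence divided by renilla, normalised to the plate median, then turned into a robust z-score for each replicate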
Scale: TNF reporter robust z-score: higher = stronger TNF reporter response to LPS
Call rule: 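Each well counts as active if its z-score is over 2.8 or under -1.5; controls are left without a call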

target | TNF reporter robust z-score | Call
NAPB | -1.46 | inactive
NAPB | -1.23 | inactive
NAPB | -1.2 | inactive
NAPB | -1.14 | inactive
PCCA | -0.75 | inactive
PCCA | -0.53 | inactive
PCCA | -1.33 | inactive
PCCA | -0.35 | inactive
DSC1 | 0.27 | inactive
DSC1 | 0.48 | inactive
DSC1 | 0.06 | inactive
DSC1 | 0.03 | inactive
PURG | 1.05 | inactive
PURG | 1.36 | inactive
PURG | 1.53 | inactive
PURG | 1.02 | inactive
GPR63 | -1.01 | inactive
GPR63 | -0.26 | inactive
GPR63 | -0.87 | inactive
GPR63 | 0.29 | inactive
MTMR1 | -0.23 | inactive
MTMR1 | 2.51 | inactive
MTMR1 | 0.68 | inactive
MTMR1 | 0.64 | inactive
ZNF655 | -1.61 | active
ZNF655 | -1.66 | active
ZNF655 | -1.52 | active
ZNF655 | -1.59 | active
DUSP6 | -1.46 | inactive
DUSP6 | -1.37 | inactive
DUSP6 | -2.12 | active
DUSP6 | -1.69 | active
WFDC13 | -0.15 | inactive
WFDC13 | -0.22 | inactive
WFDC13 | 0.79 | inactive
WFDC13 | -0.02 | inactive
ABTB1 | -0.47 | inactive
ABTB1 | 0.38 | inactive
ABTB1 | 1.35 | inactive
ABTB1 | 1.73 | inactive
DDX23 | -0.69 | inactive
DDX23 | 0.38 | inactive
DDX23 | -0.9 | inactive
DDX23 | -0.29 | inactive
FADS2 | 21.1 | active
FADS2 | -0.2 | inactive
FADS2 | -1.46 | inactive
FADS2 | 4.38 | active
CTDP1 | 0.04 | inactive
CTDP1 | 1.79 | inactive
CTDP1 | 1.48 | inactive
CTDP1 | 0.64 | inactive
TMEM216 | -0.62 | inactive
TMEM216 | -0.41 | inactive
TMEM216 | -0.69 | inactive
TMEM216 | -1.18 | inactive
MAP4K4 | 0.7 | inactive
MAP4K4 | 2.01 | inactive
MAP4K4 | 1.06 | inactive
MAP4K4 | 1.96 | inactive
PCDH12 | 0.03 | inactive
PCDH12 | 0.2 | inactive
PCDH12 | 0.45 | inactive
PCDH12 | 0.21 | inactive
CLN8 | -0.2 | inactive
CLN8 | -0.04 | inactive
CLN8 | 1.26 | inactive
CLN8 | 0.37 | inactive
NFE2L3 | -0.69 | inactive
NFE2L3 | -1.16 | inactive
NFE2L3 | -1.08 | inactive
NFE2L3 | -0.59 | inactive
TIGAR | 0.16 | inactive
TIGAR | -0.53 | inactive
TIGAR | -0.55 | inactive
TIGAR | 0.49 | inactive
PTGER1 | 0.93 | inactive
PTGER1 | -0.09 | inactive
PTGER1 | 1.95 | inactive
PTGER1 | 0.48 | inactive
ANXA10 | 0.52 | inactive
ANXA10 | -0.13 | inactive
ANXA10 | -0.62 | inactive
ANXA10 | -0.32 | inactive
ACP7 | 0.92 | inactive
ACP7 | 1.84 | inactive
ACP7 | 1.29 | inactive
ACP7 | 1.27 | inactive
SINHCAF | 0.01 | inactive
SINHCAF | -0.06 | inactive
SINHCAF | -0.69 | inactive
SINHCAF | -0.87 | inactive
SGK2 | -1.07 | inactive
SGK2 | 0.01 | inactive
SGK2 | -0.59 | inactive
SGK2 | -0.22 | inactive
MMP8 | -1.06 | inactive
MMP8 | 0.56 | inactive
MMP8 | -0.13 | inactive
RBBP4 | 0.87 | inactive
RBBP4 | 0.45 | inactive
RBBP4 | 2.01 | inactive
GJB4 | -0.87 | inactive
GJB4 | -0.24 | inactive
GJB4 | 0.57 | inactive
GJB4 | -0.66 | inactive
CGAS | -0.07 | inactive
CGAS | 0.24 | inactive
CGAS | -0.25 | inactive
CGAS | -0.6 | inactive

11 entries from above, sorted by “TNF reporter robust z-score”, highest first.
target | TNF reporter robust z-score | Call
MMP8 | 0.56 | inactive
SINHCAF | 0.01 | inactive
SGK2 | 0.01 | inactive
SINHCAF | -0.06 | inactive
MMP8 | -0.13 | inactive
SGK2 | -0.22 | inactive
SGK2 | -0.59 | inactive
SINHCAF | -0.69 | inactive
SINHCAF | -0.87 | inactive
MMP8 | -1.06 | inactive
SGK2 | -1.07 | inactive
